# Results from the supplement of paper PMC12425257.
# ± gives the standard deviation of the averaged measurements. The list shows a part of the results.
# Test system: Madurella mycetomatis MM55
# Experiment: metabolic activity (growth) relative to DMSO growth control; higher = more fungal growth
# Conditions: 10 µM
row,Compound,metabolic activity [%]
1,COc1cc(N2CCN(C(C)C)CC2)ccc1Nc1nc(Nc2ccc(F)cc2C(=O)NC[C@@H](O)CO)c2cc[nH]c2n1,112 ± 2.5
2,COc1ccc2c(-c3ccnc(Nc4cccc(OC(F)(F)F)c4)n3)cnn2n1,101 ± 8.7
3,O=S(=O)(NCCNC/C=C/c1ccc(Br)cc1)c1cccc2cnccc12,100.9 ± 0.67
4,COc1cc(C(=O)NC2CCN(C)CC2)ccc1Nc1ncc2c(n1)N(C1CCCC1)CC(F)(F)C(=O)N2C,99.3 ± 19
5,O=C(Nc1n[nH]c2nc(-c3ccccc3)c(Br)cc12)C1CC1,134 ± 3.9
6,Cc1cccc(-c2cc(Nc3ccncc3)c3ccccc3n2)n1,48.6 ± 42
7,Nc1nonc1-n1ncc2c(NC(=O)c3ccccc3Cl)cccc21,104 ± 20
8,CN(C)C/C=C/C(=O)Nc1ccc(C(=O)Nc2cccc(Nc3ncc(Cl)c(-c4c[nH]c5ccccc45)n3)c2)cc1,113 ± 2
9,CCN(C)S(=O)(=O)Nc1cccc(-c2ccc3c(NC(=O)C4CC4)n[nH]c3c2)c1,117 ± 11
10,Cc1cc(-c2ccc3c(c2)CC[C@@H](N[C@@H](C)c2ccccc2)C3)cnc1N,145 ± 23
11,CN1c2ccsc2C(=O)Nc2cnc(Nc3ccc(S(=O)(=O)NCCCNC(=O)OC(C)(C)C)cc3)nc21,85.8 ± 18
12,O=C(NCCCN1CCOC1=O)c1cnc(NCc2cc(Cl)ccc2Cl)nc1NC1CCCC1,99.3 ± 16
13,CC(=O)c1cccc(NC(=O)NC2CCN(c3ccnc(Nc4ccc(F)cc4)n3)C2)c1 (stereo unspecified),94.4 ± 1.1
14,Cc1cccc(-c2cnc3occ(-c4ccc(C(=O)O)c(C5CCCC5)c4)c3c2)c1,56.1 ± 62
15,CNc1nc(Nc2ccc(C(=O)N3CCOCC3)cc2OC)ncc1Cl,119 ± 3.6
16,CN1C(=O)[C@@H](NC(=O)c2cc(Cc3ccccc3)on2)COc2ccccc21,125 ± 4.5
17,CN(C)Cc1nc2c(sc3ccc(-c4ccc(O)cc4)cc32)c(=O)[nH]1.Cl,90.2 ± 28
18,CN1CCN(c2ccc(Nc3cc(Cc4ccccc4)cnc3C(N)=O)cc2Cl)CC1.O=C(O)C(F)(F)F,116 ± 16

row,Compound,metabolic activity [%]
1,COc1ccc2[nH]c3c4[nH]c5ccc(OC)cc5c4c4c(c3c2c1)C(=O)NC4=O,109 ± 26
2,CC[C@@H](CO)Nc1nc(Nc2cccc(NC(=O)C(C)(C)C)c2)ncc1F,126 ± 5.8
3,Cc1ccc(NC(=O)c2cc(N3CCOCC3)cc(S(F)(F)(F)(F)F)c2)cc1Nc1cc(-c2cn[nH]c2)nn1C,107 ± 40
4,CC(=O)c1c(C)c2cnc(Nc3ccn(C)n3)nc2n(C2CCCC2)c1=O,115 ± 11
5,CNC(=O)CN1CCC(C(=O)Nc2ncc(SCc3ncc(C(C)(C)C)o3)s2)CC1,107 ± 8.2
6,CCOc1ccc2c(-c3ccnc(Nc4cc(N5CCOCC5)cc(C(F)(F)F)c4)n3)cnn2n1,95.5 ± 9.1
7,Nc1nc(-c2cccc(Cl)c2)c(-c2ccc3ncccc3n2)s1,76.6 ± 15
8,CN(C)CCN(C)C(=O)c1cc(-c2ccncc2)c(-c2ccc(Cl)c(O)c2)o1,94.8 ± 22
9,NS(=O)(=O)c1ccc(Nc2ncc(-c3ccccc3)o2)cc1,102 ± 16
10,CC1=C(C(=O)Nc2ccc3[nH]ncc3c2)C(c2ccc(Cl)c(Cl)c2)CC(=O)N1 (stereo unspecified),98.4 ± 18
11,CCCCN(Cc1ccccc1)C(=O)c1ccc(S(=O)(=O)Nc2ccccc2)cc1,91.75 ± 0.74
12,Cc1nnc(-c2ccc3occ(-c4ccc(S(C)=O)cc4)c3c2)[nH]1 (stereo unspecified),114 ± 15
13,COC(=O)Nc1nc2ccc(Oc3ccc(NC(=O)Nc4cc(C(F)(F)F)ccc4F)cc3)cc2s1.Cl,110 ± 20
14,CCc1cc(Nc2nccc(-c3c(-c4ccc(OC)c(C(=O)Nc5c(F)cccc5F)c4)nc4ccccn34)n2)c(OC)cc1N1CCC(N2CCN(S(C)(=O)=O)CC2)CC1,107 ± 11
15,C=CC(=O)Nc1cc(-n2c(=O)ccc3cnc4ccc(-c5ccc(NS(C)(=O)=O)cc5)cc4c32)ccc1C,109 ± 1.2
16,CC(C)(O)c1nnc2ccc(-c3c(-c4ccc(F)cc4F)nc4n3CCC4)nn12,109 ± 6.5
17,Cn1ccc2ncnc(Oc3ccc(Nc4nc5ccccc5[nH]4)cc3)c21,104 ± 24
18,COCCOCC#Cc1cc(-c2n[nH]c3c2C(=O)c2cc(CN4CCN(C)CC4)ccc2-3)cs1,89.7 ± 26

# An excerpt from above in order of SMILES length, descending:
row,Compound,metabolic activity [%]
14,CCc1cc(Nc2nccc(-c3c(-c4ccc(OC)c(C(=O)Nc5c(F)cccc5F)c4)nc4ccccn34)n2)c(OC)cc1N1CCC(N2CCN(S(C)(=O)=O)CC2)CC1,107 ± 11
3,Cc1ccc(NC(=O)c2cc(N3CCOCC3)cc(S(F)(F)(F)(F)F)c2)cc1Nc1cc(-c2cn[nH]c2)nn1C,107 ± 40
15,C=CC(=O)Nc1cc(-n2c(=O)ccc3cnc4ccc(-c5ccc(NS(C)(=O)=O)cc5)cc4c32)ccc1C,109 ± 1.2
1,COc1ccc2[nH]c3c4[nH]c5ccc(OC)cc5c4c4c(c3c2c1)C(=O)NC4=O,109 ± 26
8,CN(C)CCN(C)C(=O)c1cc(-c2ccncc2)c(-c2ccc(Cl)c(O)c2)o1,94.8 ± 22
17,Cn1ccc2ncnc(Oc3ccc(Nc4nc5ccccc5[nH]4)cc3)c21,104 ± 24
7,Nc1nc(-c2cccc(Cl)c2)c(-c2ccc3ncccc3n2)s1,76.6 ± 15
